Experimental data taken from US20140162952A1.
These are yes or no findings as the source states them, for the method shown. Binding seen in cells or lysates may run through a third protein. Some entries that bind do so weakly or less than the wild type.

Protein sequences, listed by entry. Tags and fused reporters are not part of them. Lines headed by an entry give the natural chain unless they say otherwise; changes in a name come on top. Residues count along the entry.
UniProt P03372: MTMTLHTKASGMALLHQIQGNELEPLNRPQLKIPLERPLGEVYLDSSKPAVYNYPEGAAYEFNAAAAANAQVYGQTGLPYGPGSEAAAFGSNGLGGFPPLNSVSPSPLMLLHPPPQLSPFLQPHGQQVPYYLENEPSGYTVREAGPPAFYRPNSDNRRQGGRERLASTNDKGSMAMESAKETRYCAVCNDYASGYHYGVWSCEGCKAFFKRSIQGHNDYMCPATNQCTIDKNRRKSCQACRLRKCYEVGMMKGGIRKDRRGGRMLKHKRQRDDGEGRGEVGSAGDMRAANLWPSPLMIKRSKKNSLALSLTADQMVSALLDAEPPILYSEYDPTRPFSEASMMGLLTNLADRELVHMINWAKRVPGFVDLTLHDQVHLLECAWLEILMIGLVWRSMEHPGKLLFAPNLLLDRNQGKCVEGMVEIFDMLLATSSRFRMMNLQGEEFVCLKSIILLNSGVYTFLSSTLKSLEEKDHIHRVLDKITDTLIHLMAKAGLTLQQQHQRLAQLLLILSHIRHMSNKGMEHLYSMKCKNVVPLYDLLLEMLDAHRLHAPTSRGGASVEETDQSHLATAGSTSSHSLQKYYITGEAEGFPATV
UniProt Q99623: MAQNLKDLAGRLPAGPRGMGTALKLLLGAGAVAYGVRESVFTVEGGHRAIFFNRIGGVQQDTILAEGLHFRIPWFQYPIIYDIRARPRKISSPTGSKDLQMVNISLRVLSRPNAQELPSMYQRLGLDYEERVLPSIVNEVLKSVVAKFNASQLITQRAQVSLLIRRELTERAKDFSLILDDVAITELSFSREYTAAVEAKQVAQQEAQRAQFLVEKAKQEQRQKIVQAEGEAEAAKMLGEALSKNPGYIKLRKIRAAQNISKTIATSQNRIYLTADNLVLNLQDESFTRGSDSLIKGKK
UniProt P27986, residues 2-724: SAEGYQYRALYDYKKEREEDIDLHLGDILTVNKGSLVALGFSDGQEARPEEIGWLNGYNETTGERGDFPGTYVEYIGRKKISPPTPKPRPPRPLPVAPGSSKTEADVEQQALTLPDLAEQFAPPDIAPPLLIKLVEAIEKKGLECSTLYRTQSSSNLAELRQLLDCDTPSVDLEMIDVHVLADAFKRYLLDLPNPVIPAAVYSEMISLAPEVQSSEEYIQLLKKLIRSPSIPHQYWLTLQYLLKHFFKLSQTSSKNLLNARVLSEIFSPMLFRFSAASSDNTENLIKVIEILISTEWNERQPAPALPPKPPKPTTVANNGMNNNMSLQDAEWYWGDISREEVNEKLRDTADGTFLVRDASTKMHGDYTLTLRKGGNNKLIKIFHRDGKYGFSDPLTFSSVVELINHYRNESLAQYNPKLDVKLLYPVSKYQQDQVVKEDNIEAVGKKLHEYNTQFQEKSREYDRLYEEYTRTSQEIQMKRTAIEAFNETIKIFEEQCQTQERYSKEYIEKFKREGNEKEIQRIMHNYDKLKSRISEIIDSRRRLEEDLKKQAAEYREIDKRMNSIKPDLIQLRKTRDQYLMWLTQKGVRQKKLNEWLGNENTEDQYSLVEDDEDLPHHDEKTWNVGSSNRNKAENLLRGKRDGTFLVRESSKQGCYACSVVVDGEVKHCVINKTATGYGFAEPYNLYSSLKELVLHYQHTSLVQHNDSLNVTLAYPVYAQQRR
UniProt Q5TH69: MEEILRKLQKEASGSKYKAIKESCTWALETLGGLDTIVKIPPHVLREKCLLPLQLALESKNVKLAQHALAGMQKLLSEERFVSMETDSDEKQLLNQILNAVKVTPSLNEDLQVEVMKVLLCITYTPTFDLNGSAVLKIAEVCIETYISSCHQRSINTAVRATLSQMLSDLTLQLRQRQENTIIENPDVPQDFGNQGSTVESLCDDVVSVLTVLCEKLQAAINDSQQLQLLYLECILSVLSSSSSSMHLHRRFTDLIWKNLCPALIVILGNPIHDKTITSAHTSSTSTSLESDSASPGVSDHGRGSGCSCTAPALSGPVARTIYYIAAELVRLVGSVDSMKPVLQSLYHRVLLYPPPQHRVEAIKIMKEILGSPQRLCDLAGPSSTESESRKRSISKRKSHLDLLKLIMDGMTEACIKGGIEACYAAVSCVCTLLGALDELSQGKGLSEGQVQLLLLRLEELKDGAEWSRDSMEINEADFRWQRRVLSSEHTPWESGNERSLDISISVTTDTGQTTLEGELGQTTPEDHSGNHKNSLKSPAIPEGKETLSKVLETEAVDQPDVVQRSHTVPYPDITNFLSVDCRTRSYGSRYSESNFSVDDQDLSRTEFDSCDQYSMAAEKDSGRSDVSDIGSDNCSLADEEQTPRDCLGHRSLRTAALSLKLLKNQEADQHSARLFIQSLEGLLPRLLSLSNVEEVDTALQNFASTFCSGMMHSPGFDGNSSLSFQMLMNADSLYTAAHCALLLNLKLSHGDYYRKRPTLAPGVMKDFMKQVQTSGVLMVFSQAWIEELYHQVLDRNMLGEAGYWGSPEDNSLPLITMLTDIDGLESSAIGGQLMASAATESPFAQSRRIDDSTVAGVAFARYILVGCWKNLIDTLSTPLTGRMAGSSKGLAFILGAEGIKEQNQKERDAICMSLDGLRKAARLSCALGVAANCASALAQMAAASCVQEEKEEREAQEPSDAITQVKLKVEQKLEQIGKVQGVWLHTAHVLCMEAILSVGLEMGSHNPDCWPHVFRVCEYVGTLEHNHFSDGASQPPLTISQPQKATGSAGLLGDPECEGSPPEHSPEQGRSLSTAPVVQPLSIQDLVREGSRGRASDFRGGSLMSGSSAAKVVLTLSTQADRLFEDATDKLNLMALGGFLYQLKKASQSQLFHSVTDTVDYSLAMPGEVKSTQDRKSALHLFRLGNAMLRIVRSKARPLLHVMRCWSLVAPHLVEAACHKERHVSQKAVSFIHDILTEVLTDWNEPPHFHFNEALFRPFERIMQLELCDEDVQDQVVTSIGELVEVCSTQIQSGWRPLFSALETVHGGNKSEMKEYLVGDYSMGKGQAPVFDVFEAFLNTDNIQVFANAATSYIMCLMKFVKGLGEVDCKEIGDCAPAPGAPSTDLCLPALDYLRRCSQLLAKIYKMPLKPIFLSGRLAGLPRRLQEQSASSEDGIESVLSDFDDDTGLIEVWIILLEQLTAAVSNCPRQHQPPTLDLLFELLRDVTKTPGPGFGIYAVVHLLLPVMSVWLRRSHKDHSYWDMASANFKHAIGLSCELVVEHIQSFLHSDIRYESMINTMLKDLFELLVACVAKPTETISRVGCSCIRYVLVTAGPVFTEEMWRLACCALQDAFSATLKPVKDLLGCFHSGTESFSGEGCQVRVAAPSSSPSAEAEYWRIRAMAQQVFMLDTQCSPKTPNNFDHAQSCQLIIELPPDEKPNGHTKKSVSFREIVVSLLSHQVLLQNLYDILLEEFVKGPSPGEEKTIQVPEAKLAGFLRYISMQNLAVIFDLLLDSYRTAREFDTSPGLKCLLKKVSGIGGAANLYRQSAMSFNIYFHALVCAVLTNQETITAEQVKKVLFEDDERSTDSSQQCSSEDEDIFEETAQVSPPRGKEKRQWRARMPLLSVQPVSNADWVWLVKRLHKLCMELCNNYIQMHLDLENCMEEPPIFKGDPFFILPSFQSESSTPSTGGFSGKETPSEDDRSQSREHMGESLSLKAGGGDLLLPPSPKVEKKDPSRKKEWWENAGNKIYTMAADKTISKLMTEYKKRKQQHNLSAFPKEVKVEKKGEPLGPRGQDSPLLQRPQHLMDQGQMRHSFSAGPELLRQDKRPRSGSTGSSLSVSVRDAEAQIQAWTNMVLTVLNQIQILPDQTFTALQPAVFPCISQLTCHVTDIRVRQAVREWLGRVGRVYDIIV

What was measured:
[1] = target: estrogen receptor α (ERα) (human) (UniProt P03372); assay: anti-ERα co-IP from KPL-3C cells, 24 h, 10 nM E2 and/or 10 µM Peptide
[2] = target: estrogen receptor α (ERα) (human) (UniProt P03372); assay: co-IP from the cytoplasm fraction of MCF-7 cells, 24 h, 10 nM E2 and/or 10 µM Peptide
[3] = target: estrogen receptor α (ERα) (human) (UniProt P03372); assay: anti-ERα co-IP from the cytoplasm fraction of BT-474 cells, 24 h, 10 nM E2 and/or 10 µM Peptide
[4] = target: 6×His-tagged recombinant PHB2/REA protein (human) (UniProt Q99623); assay: Ni-resin pull-down of 10 µg His-PHB2 mixed with lysate of Flag-tagged ERAP1 expressing cells and HA-peptide; blot for ERAP1

| binding [1] | binding [2] | binding [3] | binding [4] | Substance |
| --- | --- | --- | --- | --- |
| binds | binds | binds |  | PI3K (from UniProt P27986 2-724) (enzyme) |
|  |  |  | binds | Flag-full-length ERAP1 (from UniProt Q5TH69 1-2177) |
